Earlier results, collected in patent US11026954B2, “3-beta-hydroxy-5-alpha-pregnan-20-one for use in medical treatment” (ASARINA PHARMA AB, priority 2017, dated 2021).
For at least one compound, name, drawing or mass did not settle the structure.

Details: TS patients; cited from earlier work

CC(C)C(=O)Nc1ccc([N+](=O)[O-])c(C(F)(F)F)c1 [flutamide]
Amelioration of motor tic severity: 7% | Effect on phonic tics: no significant effects
